Some of these results come from one statement about several compounds together.
System: LPCAT
Assay: LPCAT acyl-CoA substrate specificity, sunflower microsomal membranes
Format: biochemical
Settings: 20 nmol acyl-CoA, sn-1-palmitolysophosphatidylcholine, DTNB assay
Protocol: All the procedures were carried out at 4° C. The cotyledons of maturing sunflower seeds and linseed were harvested approximately 10 days after anthesis and suspended in 0.1 M sodium phosphate buffer (pH 7.2), comprising 0.33 M sucrose and 0.1% BSA (free from fatty acids). After comminution in a glass homogenizer, the homogenate was centrifuged for 30 minutes at 20 000×g. The supernatant was filtered through one layer of Miracloth and centrifuged for 90 minutes in an ultracentrifuge at 100 000×g. The pelleted microsomal membranes were washed with 0.1 M sodium phosphate buffer (pH 7.2) and resuspended in a small volume of buffer, using a glass homogenizer. The microsomal membrane preparations were either immediately processed or stored at −80° C.
LPCAT activity was determined in a continuous spectraphotometric assay in which 5,5-dithiobis-2-nitrobenzoate (DTNB) was used, and the change in absorption at 409 nm and 25° C. was monitored. The assay comprised sn-1-palmitolysophosphatidylcholine (30 nmol) as acyl acceptor, DTNB (50 nmol) and 20 nmol of one of the following acyl-CoAs: myristoyl-CoA (14:0-CoA), palmitoyl-CoA (16:0-CoA), palmitoleoyl-CoA (16:1-CoA), stearoyl-CoA (18:0-CoA), oleoyl-CoA (18:1-CoA), linoleoyl-CoA (18:2-CoA), dihomo-gamma-linolenyl-CoA (20:3-CoA) or arachidonyl-CoA (20:4-CoA) in 1 ml of 0.1 M phosphate buffer, pH 7.2. The reaction was started by addition of microsomal membrane preparation. The amount of microsomal membrane preparation added was 5 μg (Mortierella and sunflower) or 30 μg (linseed).

CCCCC/C=C\C/C=C\C/C=C\C/C=C\CCCC(=O)SCCNC(=O)CCNC(=O)[C@H](O)C(C)(C)COP(=O)(O)OP(=O)(O)OC[C@H]1O[C@@H](n2cnc3c(N)ncnc32)[C@H](O)[C@@H]1OP(=O)(O)O [Arachidonoyl-CoA, arachidonyl-CoA]
Percentage incorporation in comparison with the incorporation of oleic acid (listed as 20:4-CoA): less than 5%

CCCCCCCCCCCCCCCC(=O)SCCNC(=O)CCNC(=O)[C@H](O)C(C)(C)COP(=O)(O)OP(=O)(O)OC[C@H]1O[C@@H](n2cnc3c(N)ncnc32)[C@H](O)[C@@H]1OP(=O)(O)O [Palmitoyl-CoA, palmitoyl-CoA]
Percentage incorporation in comparison with the incorporation of oleic acid: less than 20%

CCCCCCCCCCCCCCCCCC(=O)SCCNC(=O)CCNC(=O)[C@H](O)C(C)(C)COP(=O)(O)OP(=O)(O)OC[C@H]1O[C@@H](n2cnc3c(N)ncnc32)[C@H](O)[C@@H]1OP(=O)(O)O [Stearoyl-CoA, stearoyl-CoA]
Percentage incorporation in comparison with the incorporation of oleic acid (listed as stearoyl-CoA): less than 20%
